These are yes or no findings as the source states them, for the method shown. For part of these data: Binding seen in cells or lysates may run through a third protein. Some binding calls cover weakened binding; strength is not graded here. For part of these data: Where a sequence is shown, tags or fusion partners need not be part of it.
Key:
[1] = target: EAAC1 carboxy-terminal intracellular domain bait (carboxy-87 amino acids) (UniProt P04386); experiment: yeast two-hybrid, EAAC1 carboxy-terminal bait against adult rat brain cDNA library, β-galactosidase
GST-EAAC1 fusion protein = target: T1, GST-EAAC1 fusion protein (UniProt P51907); experiment: cell-free binding of [35S]-labeled protein to GST fusion on glutathione-Sepharose
T1 sequence (looked up): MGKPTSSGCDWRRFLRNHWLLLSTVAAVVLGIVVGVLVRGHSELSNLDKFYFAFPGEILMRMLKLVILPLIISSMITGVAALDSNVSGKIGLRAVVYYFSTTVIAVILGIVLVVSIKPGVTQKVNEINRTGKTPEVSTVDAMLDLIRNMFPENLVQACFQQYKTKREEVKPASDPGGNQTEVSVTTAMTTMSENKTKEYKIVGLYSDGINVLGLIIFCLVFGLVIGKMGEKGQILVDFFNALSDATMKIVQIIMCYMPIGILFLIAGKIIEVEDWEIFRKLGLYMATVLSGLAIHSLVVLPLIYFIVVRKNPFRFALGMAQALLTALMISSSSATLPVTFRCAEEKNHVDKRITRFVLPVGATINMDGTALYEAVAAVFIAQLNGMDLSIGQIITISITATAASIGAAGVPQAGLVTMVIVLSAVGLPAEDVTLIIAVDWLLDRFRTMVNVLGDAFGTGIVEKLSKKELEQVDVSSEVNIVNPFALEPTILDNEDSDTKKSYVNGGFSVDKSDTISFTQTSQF

[2] = target: T2, EAAC1, full-length glutamate transporter (rat) (UniProt P51907); experiment: co-immunoprecipitation from transfected HEK293 cells
T2 sequence (looked up): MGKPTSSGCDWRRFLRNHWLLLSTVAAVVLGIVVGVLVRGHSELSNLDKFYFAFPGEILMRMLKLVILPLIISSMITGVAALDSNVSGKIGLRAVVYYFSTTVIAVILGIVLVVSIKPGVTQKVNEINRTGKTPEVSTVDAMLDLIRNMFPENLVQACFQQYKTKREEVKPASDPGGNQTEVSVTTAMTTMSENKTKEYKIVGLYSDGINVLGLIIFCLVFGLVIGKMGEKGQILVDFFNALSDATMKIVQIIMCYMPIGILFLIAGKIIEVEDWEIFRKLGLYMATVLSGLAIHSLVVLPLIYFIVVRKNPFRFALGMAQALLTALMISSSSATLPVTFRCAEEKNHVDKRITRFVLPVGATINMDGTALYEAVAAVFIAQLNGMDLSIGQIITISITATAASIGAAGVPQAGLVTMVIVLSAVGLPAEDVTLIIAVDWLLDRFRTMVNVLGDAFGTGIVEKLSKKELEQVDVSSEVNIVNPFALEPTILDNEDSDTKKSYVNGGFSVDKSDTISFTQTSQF

[3] = target: T2, EAAC1, full-length glutamate transporter (rat); experiment: co-immunoprecipitation from rat brain extract, Western blotting
[4] = target: EAAT4 carboxy-intracellular domain bait (final 77 amino acids of EAAT4 in pGBT9) (UniProt P04386); experiment: yeast two-hybrid
[5] = target: EAAT4 carboxy-intracellular domain bait (final 77 amino acids of EAAT4 in pGBT9) (UniProt P04386); experiment: yeast two-hybrid, EAAT4 final 77 amino acids bait against rat brain cDNA library

B1: clone E18 (GTRAP3-18 full-length cDNA) of the yeast two-hybrid screen (protein, not shown: large carriers)
chain: MDVNLAPLRAWDDFFPGSDRFARPDFRDISKWNNRVVSNLLYYQTNYLVVAAMMISVVGFLSPFNMILGGIIVVLVFTGFVWAAHNKDILRRMKKQYPTAFVMVVMLASYFLISMFGGVMVFVFGITFPLLLMFIHASLRLRNLKNKLENKMEGIGLKKTPMGIILDALEQQEDSINKFADYISKARE
binding [1]: binds

B2: [35S]-methionine labelled GTRAP3-18 made by in vitro transcription and translation (protein)
chain: MDVNLAPLRAWDDFFPGSDRFARPDFRDISKWNNRVVSNLLYYQTNYLVVAAMMISVVGFLSPFNMILGGIIVVLVFTGFVWAAHNKDILRRMKKQYPTAFVMVVMLASYFLISMFGGVMVFVFGITFPLLLMFIHASLRLRNLKNKLENKMEGIGLKKTPMGIILDALEQQEDSINKFADYISKARE
modifications: labeled with [35S]-methionine
binding (GST-EAAC1 fusion protein): binds

B3: amino-terminus c-myc tagged GTRAP3-18 (protein, not shown: small tags and cut ends)
chain: MDVNLAPLRAWDDFFPGSDRFARPDFRDISKWNNRVVSNLLYYQTNYLVVAAMMISVVGFLSPFNMILGGIIVVLVFTGFVWAAHNKDILRRMKKQYPTAFVMVVMLASYFLISMFGGVMVFVFGITFPLLLMFIHASLRLRNLKNKLENKMEGIGLKKTPMGIILDALEQQEDSINKFADYISKARE
binding [2]: binds

B4: GTRAP3-18 (glutamate transporter EAAC1 associated protein), full-length (protein)
chain: MDVNLAPLRAWDDFFPGSDRFARPDFRDISKWNNRVVSNLLYYQTNYLVVAAMMISVVGFLSPFNMILGGIIVVLVFTGFVWAAHNKDILRRMKKQYPTAFVMVVMLASYFLISMFGGVMVFVFGITFPLLLMFIHASLRLRNLKNKLENKMEGIGLKKTPMGIILDALEQQEDSINKFADYISKARE
binding [3]: binds

B5: GTRAP4-48 yeast two-hybrid clone (1.4 kb cDNA fragment in pGAD10; last 155 amino acids) (protein, not shown: large carriers)
chain: FYVSMPAGPLDSSTEPTGTPPSPSQCHSLPAWPTEPQPYRGVRGGQCSSLVRRDVDVIFHTIEQLTIKLHRLKDMELAHRELLKSLGGESSGGTTPVGSFHTEAARWTDYSLSPPAKEALASDSQNGQEQGSCPEEGSDIALEDSATDTAVSPGP
binding [4]: binds | binding [5]: binds

From patent publication US6808893
